In patent US20040038338A1, “Influence of LRP cytoplasmic domain on Abeta production” (priority 2001, published 2004):

Tested on: LRP−/− fibroblasts
Test: Cell surface biotinylation, blot for LRP
Format: cell-based, mouse
Conditions: streptavidin precipitation, LRP antibody 1704

B1: LRP-CT: last 370 amino acids of the LRP β-subunit, transmembrane domain and entire cytoplasmic region, with signal peptide (protein)
chain: KRLDNGTCVPVPSPTPPPDAPRPGTCNLQCFNGGSCFLNARRQPKCRCQPRYTGDKCELDQCWEHCRNGGTCAASPSGMPTCRCPTGFTGPKCTQQVCAGYCANNSTCTVNQGNQPQCRCLPGFLGDRCQYRQCSGYCENFGTCQMAADGSRQCRCTAYFEGSRCEVNKCSRCLEGACVVNKQSGDVTCNCTDGRVAPSCLTCVGHCSNGGSCTMNSKMMPECQCPPHMTGPRCEEHVFSQQQPGHIASILIPLLLLLLLVLVAGVVFWYKRRVQGAKGFQHQRMTNGAMNVEIGNPTYKMYEGGEPDDVGGLLDADFALDPDKPTNFTNPVYATLYMGGHGSRHSLASTDEKRELLGRGPEDEIGDPLA
  transport of the construct to the cell surface: reaches the cell surface similarly to full length LRP; also recorded: transported to the cell surface

“Also recorded” adds a separate entry of the source.
